This list holds what a sample rich in hits left over. Calls of active or inactive are those of the source. Calls follow the shape of the dose curve; as a rule, active = well fitted cell-killing curve with a large enough effect; inactive = no such curve, though single readings can be large or run the other way.

A short description of the test: qHTS for Inhibitors of TGF-b: Cytotox Counterscreen. As to conditions: HepG2 CAGA-GFP viability, ATP luminescence, 18 h; at 46.1 µM (top of the series). The text has this:
TGF-b is a main component in the TGF-b signaling pathway which plays diverse roles in cellular and development pathways. TGF-b is mediated by transcription factors called "Smads". Although the Smad-dependent pathway is the primary canonical TGF-b signaling mode, TGF-b1 can also activate alternative signaling pathways, including those involving MAPK (ERK, JNK and p38). This interaction may mediate or enhance Smad-dependent responses, or can exert Smad-independent effects. The complexity of this signaling cascade allows the TGF-b superfamily to perform unique, overlapping or redundant functions. […] We aim to identify Smad3-small molecule antagonists using a quantitative high throughput screening (qHTS) approach. […]
Suspensions of trypsinized HEPG2 CAGA-GFP cells were dispensed into white, tissue culture-treated, solid 1536-well plates at 5uL/well (1000 cells/well final concentration) in DMEM medium supplemented with 1% FBS. […] Two uL of CellTiter Glo (Promega), a luminescence-based viability reagent, was dispensed, followed by a 10 minute room temperature incubation. The plates were then measured on a PerkinElmer ViewLux plate reader for luminescence (clear filter) using a 5 second exposure. The %Activity was determined from the corrected luminescence values. […]
Concentration-response curves were fitted to the signals arising from the resulting luminescence. […]
(In general: In qHTS, concentration-response curves come from the screen itself.)
In the case of `COc1c(O)cc2c(c1OC)-c1ccc(OC)c(=O)cc1C(NC(C)=O)CC2` (stereo unspecified), the activity change, negative = cytotoxicity is inactive: -28.1%.

The values above are taken from PubChem BioAssay AID588856 (National Center for Advancing Translational Sciences (NCATS), 2011).
